The data set deals with human pancreatic carcinoma cell line. Briefly: Fluorescence microscopy of compound uptake in pancreatic cancer cell line. The format is cell-based. To be noted: 20 μM, 60 minutes, Dapi filter, 40x magnification. The protocol:
The human pancreatic carcinoma cell line was maintained in high glucose DMEM supplemented with 10% heat-inactivated foetal bovine serum (FBS).
Cells were plated into a 24-well tissue culture plate at a density of 20.5×10^4 cells per well. The cells were cultured at 37° C. in an atmosphere of 5% CO2 for 20-24 hours before the addition of 20 μM AO-CHA. The cells were incubated at 37° C. in an atmosphere of 5% CO2 and 19% oxygen for 60 minutes. Supernatant removed and wells washed twice with PBS. Cells imaged using a fluorescence microscope using a Dapi filter and forty times magnification. Images taken for both brightfield and fluorescence.
Cells were plated into a 24-well tissue culture plate at a density of 18×10^4 cells per well. The Cells were cultured at 37° C. in an atmosphere of 5% CO2 for 20-24 hours before the addition of 20 μM AO3003. The cells were incubated at 37° C. in an atmosphere of 5% CO2 and 19% oxygen for 60 minutes. Supernatant removed and wells washed twice with PBS. Cells imaged using a fluorescence microscope using a Dapi filter and forty times magnification. Images taken for both brightfield and fluorescence.

For `O=c1c(O)c(-c2cc(O)c(O)c(O)c2)oc2cc(C3CCCCC3)ccc12` [AO3003], the “uptake into the cancer cell line (fluorescence)” value was “effective uptake”.

Turning to `COc1cc(-c2oc3cc(CC4CCC(N)CC4)ccc3c(=O)c2O)cc(OC)c1O` (centres unmarked) [AO-CHA], the “uptake into the cancer cell line (fluorescence)” value is listed as “effective uptake”.

These data come from patent US9359323B2, “Compound” (priority 2010, dated 2016).
